Results are given in words; binding and its absence hold for the method and conditions named. Binding seen in cells or lysates may run through a third protein. Some binding calls cover weakened binding; strength is not graded here. Each block holds one substance with its values, some of them ahead of it.
Experiments:
[1] = molecular target: full length ILK fused to GST (ILK-FL) (human) (UniProt Q13418); test: pull-down; GST-fusion proteins (5 ug each) on Glutathione Sepharose 4B beads incubated with lysate (500 ug) of 293T cells expressing V5-RhoT1, 4 °C, 2 h; washed 4 times with NP-40 buffer; western blot; only the target purified
[2] = molecular target: mEmerald-tagged ILK (human) (UniProt Q13418); test: proximity ligation; MDA-MB-231 cells stably expressing mEmerald-ILK (doxycycline-induced) and V5-RhoT1, fixed; anti-ILK mouse mAb and anti-V5 rabbit mAb; Duolink In Situ PLA
[3] = molecular target: ILK (endogenous, MDA-MB-231) (human (endogenous in MDA-MB-231)) (UniProt Q13418); test: co-IP; MDA-MB-231 cell lysates (500 ug) with anti-ILK rabbit mAb or nonimmune rabbit IgG and protein A sepharose, 4 °C, 4 h; NP-40 buffer; blot of ILK and RhoT1; also in cells transfected with siRNAs (AMAP1, Arf6, ILK)

Chains of the proteins cited; added tags and fusions are not shown.
UniProt Q13418: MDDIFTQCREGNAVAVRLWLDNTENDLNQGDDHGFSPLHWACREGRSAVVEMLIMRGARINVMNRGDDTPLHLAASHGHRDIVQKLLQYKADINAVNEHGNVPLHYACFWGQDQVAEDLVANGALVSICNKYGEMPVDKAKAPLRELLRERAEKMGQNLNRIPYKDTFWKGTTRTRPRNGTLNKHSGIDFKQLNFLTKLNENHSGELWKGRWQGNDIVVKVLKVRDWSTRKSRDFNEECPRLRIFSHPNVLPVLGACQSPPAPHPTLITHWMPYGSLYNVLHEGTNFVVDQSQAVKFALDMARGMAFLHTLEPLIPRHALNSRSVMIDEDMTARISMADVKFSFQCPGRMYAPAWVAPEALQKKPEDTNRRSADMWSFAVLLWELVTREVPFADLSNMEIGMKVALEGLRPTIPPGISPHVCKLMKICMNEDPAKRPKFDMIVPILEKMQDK
UniProt Q8IXI2: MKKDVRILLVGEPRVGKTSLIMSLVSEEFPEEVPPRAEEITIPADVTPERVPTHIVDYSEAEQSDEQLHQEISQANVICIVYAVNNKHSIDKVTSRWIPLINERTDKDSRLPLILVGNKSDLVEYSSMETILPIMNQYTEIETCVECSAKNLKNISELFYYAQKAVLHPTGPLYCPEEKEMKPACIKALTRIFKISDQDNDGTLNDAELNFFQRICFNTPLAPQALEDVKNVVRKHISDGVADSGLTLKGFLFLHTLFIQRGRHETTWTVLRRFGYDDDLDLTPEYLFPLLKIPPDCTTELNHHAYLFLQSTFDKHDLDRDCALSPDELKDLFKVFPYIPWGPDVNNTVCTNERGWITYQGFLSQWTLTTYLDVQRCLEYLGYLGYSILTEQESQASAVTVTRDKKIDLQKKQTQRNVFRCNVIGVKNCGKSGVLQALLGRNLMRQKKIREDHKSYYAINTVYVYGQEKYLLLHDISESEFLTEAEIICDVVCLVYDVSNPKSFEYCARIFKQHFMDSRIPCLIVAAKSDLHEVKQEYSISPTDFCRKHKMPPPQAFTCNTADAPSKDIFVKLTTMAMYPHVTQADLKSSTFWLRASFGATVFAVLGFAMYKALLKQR

- binding [1]: binds
Substance: V5-tagged RhoT1 (overexpressed in 293T cells) (from UniProt Q8IXI2 1-618)

- binding [2]: binds
Substance: V5-RhoT1 (stably expressed in MDA-MB-231 cells) (from UniProt Q8IXI2 1-618)

- binding [3]: binds
Substance: RhoT1 (endogenous, MDA-MB-231) (from UniProt Q8IXI2 1-618)
